Taken from: PubChem BioAssay AID1259254 (NCATS, 2017)

- Aim: 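Gene knock-downs that lead to re-replication, shown by excess G2 DNA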 (primary screen)
- Cells: human HCT116 colorectal cancer cells
- Knock-down reagent: single siRNA against human genes
- Timing: 3 days
- Measurement: 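Imaged Hoechst DNA stain sorts each cell into a cycle phase by DNA amount; per plate, G2 fraction set to 0% for non-targeting and 100% for GMNN siRNA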
- Scale: G2 robust z-score: higher = more G2 cells, more excess DNA replication
- Call rule: 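An siRNA counts as active if its G2 robust z-score lies at least 5 MADs above the screen median; here such calls match roughly 38% of GMNN control or more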
The whole screen tested about 59,000 reagents; below is a part drawn at random. In the full data, about 1,550 (2.6%) are marked active. 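G2 share is only a proxy for re-replication; each gene was hit by three separate siRNAs, and active genes were retested.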 Entries without a mark were called inactive. Reagents against one gene are numbered here. Further read-outs or replicates are left out here. The record does not give: the amount of reagent.

COA1 (cytochrome c oxidase assembly factor 1) #1: G2 robust z-score = 3.61
COA1 (cytochrome c oxidase assembly factor 1) #2: G2 robust z-score = 1.69
COA1 (cytochrome c oxidase assembly factor 1) #3: G2 robust z-score = -0.556
PRSS36 (serine protease 36) #1: G2 robust z-score = 1.38
PRSS36 (serine protease 36) #2: G2 robust z-score = -0.396
PRSS36 (serine protease 36) #3: G2 robust z-score = 1.56
LINC02591 (long independently transcribed non-coding RNA 2591) #1: G2 robust z-score = -0.634
LINC02591 (long independently transcribed non-coding RNA 2591) #2: G2 robust z-score = -0.497
LINC02591 (long independently transcribed non-coding RNA 2591) #3: G2 robust z-score = -0.104
SPARC (secreted protein acidic and cysteine rich) #1: G2 robust z-score = 0.497
SPARC (secreted protein acidic and cysteine rich) #2: G2 robust z-score = 1.44
SPARC (secreted protein acidic and cysteine rich) #3: G2 robust z-score = 0.275
SLC3A1 #1: G2 robust z-score = 6.3 (active)
SLC3A1 #2: G2 robust z-score = -0.0616
SLC3A1 #3: G2 robust z-score = -0.936
FAM229B (family with sequence similarity 229 member B) #1: G2 robust z-score = -0.054
FAM229B (family with sequence similarity 229 member B) #2: G2 robust z-score = -0.33
FAM229B (family with sequence similarity 229 member B) #3: G2 robust z-score = 2.75
OR4D6 (olfactory receptor family 4 subfamily D member 6) #1: G2 robust z-score = 0.386
OR4D6 (olfactory receptor family 4 subfamily D member 6) #2: G2 robust z-score = -0.771
OR4D6 (olfactory receptor family 4 subfamily D member 6) #3: G2 robust z-score = 0.451
SLC25A11 #1: G2 robust z-score = 0.0134
SLC25A11 #2: G2 robust z-score = 0.06
SLC25A11 #3: G2 robust z-score = 0.369
PGLYRP3 (peptidoglycan recognition protein 3) #1: G2 robust z-score = -0.911
PGLYRP3 (peptidoglycan recognition protein 3) #2: G2 robust z-score = -0.159
PGLYRP3 (peptidoglycan recognition protein 3) #3: G2 robust z-score = 5.08 (active)
LOC730378 (retired record) #1: G2 robust z-score = 0.809
LOC730378 (retired record) #2: G2 robust z-score = -1.28
LOC730378 (retired record) #3: G2 robust z-score = -0.721

3 entries already listed, sorted by “G2 robust z-score”, descending:
PGLYRP3 (peptidoglycan recognition protein 3) #3: G2 robust z-score = 5.08 (active)
LOC730378 (retired record) #1: G2 robust z-score = 0.809
LOC730378 (retired record) #2: G2 robust z-score = -1.28
